# Measured values reported in EP1749819A1, “(rac)-N-piperidinyl-5-(4-chlorophenyl)-1-(2,4-dichlorophenyl)-4,5-dihydro-1H-pyrazole-3-carboxamide hydrates” (LABORATORIOS DEL DR. ESTEVE, S.A., priority 2005, dated 2007).
# At least one compound was matched to its structure with a doubt left.
# Tested on: rats
# Test: In vivo testing for antiobesic activity
smiles,measurement,setting,value
"O=C(NN1CCCCC1)C1=NN(c2ccc(Cl)cc2Cl)C(c2ccc(Cl)cc2)C1 (stereo not drawn) [Example 1, N-piperidinyl-5-(4-chlorophenyl)-1-(2,4-dichlorophenyl)-4,5-dihydro-1H-pyrazole-3-carboxamide]",body weight,"10 mg/kg body weight daily intraperitoneally over 14 days, Figure 1",body weight is lowered
same,food intake,"10 mg/kg body weight daily intraperitoneally over 14 days, Figure 2",reduction of food intake
same,body weight effect after the treatment is ended,"after end of 14 days of 10 mg/kg daily intraperitoneally, Figure 1",this effect is also observed after the treatment is ended
